Results as given in article PMC5736350.
Numbering of substitutions follows the chain as printed. Results are given in words; binding and its absence hold for the method and conditions named. Binding seen in cells or lysates may run through a third protein. Some entries that bind do so weakly or less than the wild type. For some of these results: Sequences can lack the tags named with a protein.

Amino acid sequences for entries named in this document (tags omitted).
UniProt P53350: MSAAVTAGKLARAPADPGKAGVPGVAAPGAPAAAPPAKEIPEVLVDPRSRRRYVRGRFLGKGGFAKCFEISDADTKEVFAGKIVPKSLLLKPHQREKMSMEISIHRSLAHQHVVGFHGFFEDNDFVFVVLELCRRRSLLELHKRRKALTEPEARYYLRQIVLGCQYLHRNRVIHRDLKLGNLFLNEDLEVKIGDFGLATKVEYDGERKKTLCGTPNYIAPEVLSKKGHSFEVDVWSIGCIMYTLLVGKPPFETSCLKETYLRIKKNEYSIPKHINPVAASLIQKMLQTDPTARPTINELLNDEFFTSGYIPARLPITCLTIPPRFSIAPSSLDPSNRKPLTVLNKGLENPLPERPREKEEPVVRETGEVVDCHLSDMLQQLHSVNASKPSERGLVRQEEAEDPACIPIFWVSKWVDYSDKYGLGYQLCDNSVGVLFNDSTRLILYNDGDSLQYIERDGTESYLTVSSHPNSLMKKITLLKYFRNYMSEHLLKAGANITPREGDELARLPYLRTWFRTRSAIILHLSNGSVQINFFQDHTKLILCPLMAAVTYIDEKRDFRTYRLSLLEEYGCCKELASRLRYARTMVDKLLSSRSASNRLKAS
UniProt Q9HAW4: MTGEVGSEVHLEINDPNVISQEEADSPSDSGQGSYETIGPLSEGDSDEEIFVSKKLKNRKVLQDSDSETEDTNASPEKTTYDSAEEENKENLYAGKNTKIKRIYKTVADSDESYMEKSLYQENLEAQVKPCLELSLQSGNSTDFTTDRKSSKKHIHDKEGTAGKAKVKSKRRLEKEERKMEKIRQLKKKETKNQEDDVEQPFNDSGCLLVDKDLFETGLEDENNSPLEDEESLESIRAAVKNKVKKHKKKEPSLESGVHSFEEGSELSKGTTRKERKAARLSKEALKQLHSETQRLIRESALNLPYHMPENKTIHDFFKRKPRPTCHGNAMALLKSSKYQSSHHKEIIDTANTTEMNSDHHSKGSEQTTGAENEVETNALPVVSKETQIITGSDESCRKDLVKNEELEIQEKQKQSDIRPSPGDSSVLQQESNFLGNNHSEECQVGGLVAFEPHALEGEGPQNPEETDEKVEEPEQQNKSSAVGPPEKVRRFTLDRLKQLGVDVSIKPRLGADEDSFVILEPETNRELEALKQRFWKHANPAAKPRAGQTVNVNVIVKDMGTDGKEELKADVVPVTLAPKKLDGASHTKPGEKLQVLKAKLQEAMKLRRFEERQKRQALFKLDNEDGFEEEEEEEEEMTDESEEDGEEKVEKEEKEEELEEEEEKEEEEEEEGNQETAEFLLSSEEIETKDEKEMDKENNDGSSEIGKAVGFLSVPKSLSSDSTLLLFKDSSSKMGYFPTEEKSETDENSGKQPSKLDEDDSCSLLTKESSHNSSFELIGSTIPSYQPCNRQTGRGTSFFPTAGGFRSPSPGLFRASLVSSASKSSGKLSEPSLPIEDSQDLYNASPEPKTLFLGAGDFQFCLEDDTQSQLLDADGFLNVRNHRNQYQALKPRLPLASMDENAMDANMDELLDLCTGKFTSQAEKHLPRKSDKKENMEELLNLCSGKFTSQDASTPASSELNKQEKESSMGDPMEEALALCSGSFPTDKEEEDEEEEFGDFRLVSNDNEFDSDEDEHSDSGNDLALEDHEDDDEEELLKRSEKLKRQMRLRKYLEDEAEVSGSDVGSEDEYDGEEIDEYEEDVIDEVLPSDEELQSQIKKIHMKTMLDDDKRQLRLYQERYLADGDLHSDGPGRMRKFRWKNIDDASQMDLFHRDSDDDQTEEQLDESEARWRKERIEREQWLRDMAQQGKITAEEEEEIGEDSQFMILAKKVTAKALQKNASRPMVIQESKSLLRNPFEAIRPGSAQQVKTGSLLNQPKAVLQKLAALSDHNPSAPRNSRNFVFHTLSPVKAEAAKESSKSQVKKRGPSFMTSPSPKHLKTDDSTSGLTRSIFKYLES

Tests used:
Assay in all cases: co-IP; lysates of HEK293A-T-REx cells stably expressing RAD9-mH (WT or mutants); anti-myc antibody-coated agarose beads; HEPES buffer pH 7.4, 150 mM NaCl, 0.1% NP40, 0.1% Triton X-100; with or without UV (PLK1-HA), with 0.2 mM HU for 24 hr (CLASPIN); blots with anti-PLK1, anti-CLASPIN, anti-RAD9
[1] = target: T1, RAD9-WT-mH (wild-type RAD9 with C-terminal myc-His6 tag) (human) (UniProt Q99638)
T1 sequence: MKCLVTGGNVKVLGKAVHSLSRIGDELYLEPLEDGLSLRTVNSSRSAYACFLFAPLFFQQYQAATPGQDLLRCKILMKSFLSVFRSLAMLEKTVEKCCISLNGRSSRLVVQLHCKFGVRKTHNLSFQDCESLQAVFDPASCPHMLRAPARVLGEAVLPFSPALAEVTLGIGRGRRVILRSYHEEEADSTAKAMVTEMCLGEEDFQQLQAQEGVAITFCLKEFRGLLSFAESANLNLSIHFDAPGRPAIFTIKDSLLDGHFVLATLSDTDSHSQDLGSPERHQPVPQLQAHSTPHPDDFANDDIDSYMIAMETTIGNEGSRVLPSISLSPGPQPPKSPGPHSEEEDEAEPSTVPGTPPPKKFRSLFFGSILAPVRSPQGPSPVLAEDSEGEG

[2] = target: T2, RAD9-S291A/T292A-mH (human) (UniProt Q99638)
T2 sequence: T1 sequence with S291A, T292A

[3] = target: T3, RAD9-T313A-mH (human) (UniProt Q99638)
T3 sequence: T1 sequence with T313A

PLK1-HA, ectopically expressed (from UniProt P53350 1-603) (enzyme)
binding [1]: binds

CLASPIN, endogenous (from UniProt Q9HAW4 1-1339)
binding [2]: binds | binding [3]: binds

PLK1, endogenous (from UniProt P53350 1-603) (enzyme)
binding [1]: binds
